Literature values as cited in patent publication US6835567B1, “PNS cell lines and methods of use therefor” (priority 1998, dated 2004).
At least one compound was matched to its structure with a doubt left.

By UniProt entry, the sequences of proteins in these tests, tags left out.
UniProt P04483, whole entry, added parts left off: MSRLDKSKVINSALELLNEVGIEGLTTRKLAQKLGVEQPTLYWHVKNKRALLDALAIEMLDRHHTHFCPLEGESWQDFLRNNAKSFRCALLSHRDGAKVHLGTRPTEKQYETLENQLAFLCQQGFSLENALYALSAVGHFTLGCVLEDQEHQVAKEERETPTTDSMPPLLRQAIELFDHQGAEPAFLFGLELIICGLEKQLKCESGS

Target: tet-controlled transactivator (tTA) (Escherichia coli, UniProt P04483)
Conditions: 0.01-1.0 μg/mL; cited from earlier work

CN(C)[C@@H]1C(O)=C(C(N)=O)C(=O)[C@@]2(O)C(O)=C3C(=O)c4c(O)cccc4[C@@](C)(O)[C@H]3C[C@@H]12 [tetracycline]
effect on transactivation by tTA: almost completely abolish
